“Also recorded” adds a separate entry of the source. For at least one compound, name, drawing or mass did not settle the structure.
How the values were obtained:
Type in all cases: cell-based, human
[1] = tested on: meK172meK180 methylated form of H1.0 in hADSC cells; test: H1.0 meK172meK180 methylation and localisation in hADSCs upon bleomycin genotoxic stress (immunostaining, Western blot)
Description: FIGS. 4A-4C illustrate the dynamics of the meK172meK180 methylation of hi stone H1.0 upon genotoxic stress-induced senescence of human adult stem (hADSC). FIG. 4A: Cells we treated with 50 μg/ml bleomycin for 3 hrs. Drug was replaced with normal DMEM12 media and cells were assessed for ^meK172^meK180 histone H1 methylation and DNA damage γH2AX at different time points (panels A, B, and C) by immunohistochemistry. Cellular senescence was estimated by senescence-associated β-Gal activity (phase-contrast). […] 1, 2, 3—represent samples of three independent hADSCs cultures used in western blot and qPCR experiments.
Cellular senescence is believed to be associated with accumulation of persistent DNA damage and activation of DNA damage response (DDR) pathways. In the DDR pathway, some chromatin modifications seem to play a critical role in marking lesions or recruiting factors involved in repair, thus facilitating the function of repair proteins. The best characterized in this context are histone H2AX and H1 phosphorylation events.

H1.0 gene = H1.0 gene expression in hADSCs (qPCR); details: self-renewing or senescent hADSCs
Description: FIGS. 4A-4C illustrate the dynamics of the meK172meK180 methylation of hi stone H1.0 upon genotoxic stress-induced senescence of human adult stem (hADSC). FIG. 4A: Cells we treated with 50 μg/ml bleomycin for 3 hrs. Drug was replaced with normal DMEM12 media and cells were assessed for ^meK172^meK180 histone H1 methylation and DNA damage γH2AX at different time points (panels A, B, and C) by immunohistochemistry. Cellular senescence was estimated by senescence-associated β-Gal activity (phase-contrast). FIGS. 4B and 4C show the results of Western blots using H1.0 methyl antibodies in crude cellular extracts from human ADSCs treated with Rapamycin (FIG. 4B) or rampamyucin and bleomycin (FIG. 4C). […] However, acute DDR results in transcriptional up regulation of H1.0 gene expression that could be influenced by TOR pathway suppression. 1, 2, 3—represent samples of three independent hADSCs cultures used in western blot and qPCR experiments.
Cellular senescence is believed to be associated with accumulation of persistent DNA damage (Sedelnikova et al. (2008) Aging Cell 7: 89-100; Rodier et al. (2009) Nat. Cell Biol., 11: 973-979) and activation of DNA damage response (DDR) pathways (Wang et al. (2011) Cell Cycle 10: 3016-3030; Sedelnikova et al. (2004) Nat. Cell Biol., 6: 168-170; Herbig et al. (2004) Molecular Cell, 14: 501-513; d'Adda et al. (2003) Nature 426: 194-198). […]

[2] = tested on: meK172meK180 methylated form of H1.0 in HCA2 cells; test: H1.0 meK172meK180 methylation and localisation in somatic HCA2 cells upon bleomycin genotoxic stress (IF, Western blot); details: for meK172meK180 H1.0 methylation: rapamycin 500 nM 24 hrs prior to bleomycin-induced DNA damage, IF and Western blot

CO[C@H]1C[C@@H]2CC[C@@H](C)[C@@](O)(O2)C(=O)C(=O)N2CCCC[C@H]2C(=O)O[C@H]([C@H](C)C[C@@H]2CC[C@@H](O)[C@H](OC)C2)CC(=O)[C@H](C)/C=C(\C)[C@@H](O)[C@@H](OC)C(=O)[C@H](C)C[C@H](C)/C=C/C=C/C=C/1C [rapamycin]
meK172meK180 H1.0 methylation ([1]; hADSC, rapamycin 500 nM 24 hrs prior to bleomycin-induced DNA damage, IF and Western blot): decreases; also recorded: decrease of H1.0 methylation
cytoplasmic deposition/accumulation of meK172meK180 methylated form of H1.0 ([1]; hADSC, rapamycin 24 hrs prior to bleomycin, genotoxic stress-induced senescence): rescues the cytoplasmic deposition; also recorded: blocks
H1.0 eviction from chromatin ([1]; treatment with rapamycin): blocks
H1.0 expression after rapamycin treatment (H1.0 gene): No changes
meK172meK180 H1.0 methylation [2]: decreases
meK172meK180 H1.0 methylation ([2]; listed as Rapamycin): reduces H1.0 methylation
cytoplasmic accumulation of meK172meK180 methylated form of H1.0 ([2]; rapamycin 24 hrs prior to bleomycin): blocks
